According to patent US5373089A, “Oxytocin antagonist” (Northwestern University, priority 1993, dated 1994):
Where “and” joins values, the source holds several entries; their conditions need not be identical. Identical values can stand only once. At least one peptide structure holds a part that was inferred or is arguable (an end, a ring closure or a residue). Starred links: 1 amine or outer side, 2 acyl side, 3 side chain; linkers in the order of their positions; H or OH if unused. Positions of bridges follow the written chain, without caps; N, C: chain ends. Non-standard residues stand in square brackets, D forms with d. Residues, ends and D or L forms follow the SMILES beside them. X1 = O=C(CC1(S[*:2])CCCCC1)[*:1]; Pen = CC(C)(S)[C@H](N)C(=O)O

What was measured:
oxytocin = conditions: reported in the cited literature; cited from earlier work
ESTROUS RAT UTERUS = test: Oxytocic bioassay (isolated rat uterus, integrated contraction response to oxytocin); assay type: cell-based; conditions: for OXYTOCIC BIOASSAY ED50: Table 3
From the text: The protocol used for the oxytocin bioassay procedure is derived from procedures described in a paper by Sawyer, et al., Endocrinology, 106:81 (1980), which in turn was based on reports of Munsick, Brit. J. Pharmacol., 3:328 (1960), and Holton, Brit. J. Pharmacol., 3:328 (1948). The assay calculations for the pA2 estimates are described by Schild, British J. Pharmacology, 2:189 (1947). The major difference in the present procedure from those reported by others in the field is that the area under the contraction is integrated where most other techniques calculate the amplitude. Integration provides much more consistent and reliable results although the pA2 estimates are approximately an order of magnitude lower than those reported using amplitude of the contraction as the endpoint.
1. Animals--a 1.5 cm piece of uterus from a virgin rat (Holtzman) in natural estrus is used for the assay.
2. Buffer/Assay Bath--The buffer used is Munsicks. […] The buffer is gassed continuously with 95% oxygen; 5% carbon dioxide giving a pH of 7.4. The temperature of the assay bath is 37° C. A 10 ml assay bath is used that contains a water jacket for maintaining the temperature and inlet and outlet spikets for adding and removing buffer.
3. Polygraph/transducer--The piece of uterine tissue used for the assay is anchored at one end and connected to a Statham Strain Gauge Force Transducer at the other end which in turn is attached to a Grass Polygraph Model 79 for monitoring the contractions.
4. Assay Protocol. (a) The tissue is equilibrated in the assay bath for one hour with washing with new buffer every fifteen minutes. One gram of tension is kept on the tissue at all times.
(b) The tissue is stimulated initially with oxytocin at 10 nM to "acclimate" the tissue and with […] KCl to determine the maximum contractile response.
(d) The tissue is exposed to oxytocin (Calbiochemical, San Diego, Calif.) for one minute and washed out. There is a three minute interval before addition of the next dose of the agonist or antagonist. When the antagonist is tested, it is given five minutes before the agonist. The agonist is given for one minute. All responses are integrated using a 7P10 Grass Integrator. This is the major difference between the present protocol and others in the literature which usually measure amplitude of the contractions as the response. A single concentration of oxytocin, equal to 80% of the maximum response, is used to test the antagonist. […] This is repeated three times for each dose of antagonist for a three point assay.
(e) Calculations for pA2 : The dose-response (DR) ratios are calculated for antagonist and a Schild's Plot is performed by plotting the Log (DR-1) vs. Log of antagonist concentration. The line plotted is calculated by least squares regression analysis. The pA2 is the concentration of antagonist at the point where the regression line crosses the 0 point of the Log (DR-1) ordinate. The pA2 is the negative Log of the concentration of antagonist that will reduce the response to the agonist by one-half.
The protocol used for the oxytocin bioassay procedure is derived from procedures described in a paper by Sawyer, et al., Endocrinology, 106:81 (1980), which in turn was based on reports of Munsick, Brit. J. Pharmacol., 3:328 (1960), and Holton, Brit. J. Pharmacol., 3:328 (1948). The assay calculations for the pA2 estimates are described by Schild, Brit. J. Pharmacol. (1947). The major difference in procedure from those previously reported was the integration of the area under the contraction instead of merely calculating the amplitude. Integration provides more consistent and reliable results, although the pA2 estimates are about an order of magnitude lower than those reported using amplitude of the contraction as the endpoint.
A 1.5 cm piece of uterus from a virgin rat (Holtzman) in natural estrus is used for the assay.
The buffer used is Munsick's. […]

ADH = ADH bioassay (alteration in urine output due to ADH); assay type: in vivo; conditions: relative to A = 1.000
Method: The above compound was also tested for antagonism to vasopressin. Anti-ADH activity can be determined by measuring the alteration in urine output due to ADH in the presence and absence of the antagonist. A suitable ADH-assay is described in Sawyer, et al., Endocrinology, 63:694 (1958). […] The ratio of oxytocin antagonism to ADH antagonism was very high, viz. over 1, 866, as compared with 200 for the compositions disclosed in the parent applications.
The anti-ADH activity is measured by the alteration in urine […] in the presence and absence of the antagonist to determine the specificity of the antagonist. The anti-ADH assay is described in Sawyer, et al., Endocrinology, 63:694 (1958).

RAT OXYTOCIN RECEPTOR = target: T1, RAT OXYTOCIN RECEPTOR (Rattus norvegicus, UniProt P70536); test: Oxytocin receptor assay, pregnant rat uterus (P21) membranes, 3H-OT competition; conditions: ratio of binding affinity to ANTAG I
T1 construct: from tissue; host or cells: uterus of day-21 pregnant Holtzman rats, sucrose-gradient membrane fraction
T1 sequence (P70536 1-388): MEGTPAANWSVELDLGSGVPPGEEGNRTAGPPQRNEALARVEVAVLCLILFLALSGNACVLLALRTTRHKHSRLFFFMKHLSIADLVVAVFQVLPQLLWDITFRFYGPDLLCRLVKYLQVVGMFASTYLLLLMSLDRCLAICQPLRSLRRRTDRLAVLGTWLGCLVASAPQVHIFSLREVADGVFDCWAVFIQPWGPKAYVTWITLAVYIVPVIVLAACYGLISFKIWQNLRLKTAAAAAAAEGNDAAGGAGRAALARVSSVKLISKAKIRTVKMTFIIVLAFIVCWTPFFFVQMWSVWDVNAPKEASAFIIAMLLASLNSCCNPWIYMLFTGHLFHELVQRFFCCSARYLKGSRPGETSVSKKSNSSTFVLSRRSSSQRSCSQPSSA
Method: Uterine tissue was removed on day 21 of pregnancy (delivery=Days 211/2 to 221/2) from Holtzman rats. The tissue was emptied of its contents, rinsed in ice cold buffer, cut into small pieces and frozen at -70° C. until homogenization.
(§1) Oxytocin receptors (OTrs) reside on the cell membrane and are present at high concentrations at the end of pregnancy in uterine tissue. Frozen tissue is homogenized in Tris buffer, the homogenate filtered, and the filtrate centrifuged at 1000 g for 15 minutes at 4° C. The supernatant is centrifuged at 40,000 g for 30 minutes and the pellet containing the cell membranes resuspended in 10% sucrose. […]
(§2) The binding assay consist of 0.1 ml of 20,000 cmp of tritium labeled OT (New England Nuclear, […]), 0.1 ml of OT antagonist added at increasing concentration, 0.25 ml of buffer and 0.05 ml of membrane (70-150 ug protein). […] The resulting pellet containing the bound ^3 H-OT is dissolved in 0.1N NaOH at 45 ° C. for 30 minutes and this mixture is then placed in liquid scintillation counting fluid and counted for dpms in a scintillation counter.
(§3) The data is analyzed by nonlinear curve fitting methods using McPherson's EBDA (J Pharmacol Methods 14:213-228, 1985) and Munson and Rodbard's LIGAND (Anal Biochem 107:220-239, 1980) program for saturation and competition analysis for determining Kds and Kis.

pregnant baboon = test: Oxytocin challenge test in tethered pregnant baboon (antagonists-response interval); assay type: in vivo; conditions: for ARI (antagonists-response interval): 1 mg single bolus intra-arterially, then oxytocin infusion, pregnant baboon day 130-145; for ARI (OTA/ANTI): ratio to ANTAG I
Method: The baboon is an excellent animal model because of its physiologic and anatomic similarity to humans (see articles by our laboratory: Am J Obstet Gynecol. 163:1815-1882, 1990; Am J Obstet Gynecol 165:456-560, 1991; Am J Obstet Gynecol 165:1487-1498, 1991; articles by other laboratories: Endocrine Reviews 11:124-150, 1990; 11:151-176, 1990). Pregnant tethered baboons were studied between 130 to 145 days of pregnancy Delivery=day 184). The oxytocin antagonists were administered as a single bolus injection of 1 mg intra-arterially followed 1 minute later by the infusion of oxytocin. […] This oxytocin antagonist was not produced in our laboratory and is not an oxytocin analog.

HUMAN OXYTOCIN RECEPTOR = target: T2, HUMAN OXYTOCIN RECEPTOR (Homo sapiens, UniProt P30559); test: Oxytocin receptor assay, human myometrial tissue membranes, 3H-OT competition; conditions: ratio of binding affinity to ANTAG I
T2 construct: Oxytocin receptors (OTrs) reside on the cell membrane and are present at high concentrations at the end of pregnancy in uterine tissue; from tissue; host or cells: human myometrium from cesarean section patients, sucrose-gradient membrane fraction
T2 sequence (P30559 1-389): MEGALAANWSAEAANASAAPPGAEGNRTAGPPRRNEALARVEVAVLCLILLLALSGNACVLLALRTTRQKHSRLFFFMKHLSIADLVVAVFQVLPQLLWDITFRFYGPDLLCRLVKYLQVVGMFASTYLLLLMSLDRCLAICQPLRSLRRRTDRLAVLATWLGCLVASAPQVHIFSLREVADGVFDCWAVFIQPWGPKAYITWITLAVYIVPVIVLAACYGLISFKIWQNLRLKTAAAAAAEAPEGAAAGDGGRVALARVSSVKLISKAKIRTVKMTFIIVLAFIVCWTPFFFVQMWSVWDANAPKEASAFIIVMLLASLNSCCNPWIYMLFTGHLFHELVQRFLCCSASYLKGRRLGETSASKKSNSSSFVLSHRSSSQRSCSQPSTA
Method: Human myometrial tissue was collected from patients at the time of cesarian section after informed consent. The tissue was rinsed in cold buffer, cut into small pieces and frozen at -70° C. until homogenization.
as §1, §2, §3

CC[C@H](C)[C@@H]1NC(=O)[C@H](Cc2ccccc2)NC(=O)[C@@H](Cc2ccccc2)NC(=O)CC2(CCCCC2)SSC[C@@H](C(=O)N2CCC[C@H]2C(=O)N[C@@H](CCCNC(=N)N)C(=O)NCC(N)=O)NC(=O)[C@H](CC(N)=O)NC1=O [Compound A, [Pmp^1,D-Phe^2,Phe^3,Ile^4,Arg^8] oxytocin, reference compound] ([dF]FINCPRG-NH2; linker N-5 via X1)
pA2 (anti-oxytocic, literature) (oxytocin): 8.2
OXYTOCIC BIOASSAY ED50 (ESTROUS RAT UTERUS; estrous rat uterus): 44.76 nM

CC[C@H](C)[C@@H]1NC(=O)[C@H](Cc2ccccc2)NC(=O)[C@@H](Cc2c[nH]c3ccccc23)NC(=O)CC2(CCCCC2)SSC[C@@H](C(=O)N2CCC[C@H]2C(=O)N[C@@H](CCCNC(=N)N)C(=O)NCC(N)=O)NC(=O)[C@H](CC(N)=O)NC1=O [Compound B, [Pmp^1,D-Trp^2,Phe^3,Ile^4,Arg^8] oxytocin] ([dW]FINCPRG-NH2; linker N-5 via X1)
ADH Bioassay Relative Anti-ADH Activity (ADH): 0.550
rOTr (OTA/ANTI) (RAT OXYTOCIN RECEPTOR): 1.0
ARI (antagonists-response interval) (pregnant baboon): 59
ARI (OTA/ANTI) (pregnant baboon): 1
OXYTOCIC BIOASSAY ED50 (ESTROUS RAT UTERUS; estrous rat uterus): 30.90 nM
BIOASSAY ED50 (ESTROUS RAT UTERUS; estrous rat uterus, Table 4): 30.9 nM
BIOASSAY (ANTI/OTA) (ESTROUS RAT UTERUS; ratio to ANTAG I, rat oxytocic bioassay): 1.0
Ratio Anti-OT/AntiADH (ESTROUS RAT UTERUS; relative anti-oxytocic activity / relative anti-ADH activity): 1.82 and 1.8
Oxytocic Bioassay Relative Anti-Oxytocic Activity (ESTROUS RAT UTERUS; relative to B = 1.0): 1.0
hOTR (OTA/ANTI) (HUMAN OXYTOCIN RECEPTOR): 1.0

CC[C@H](C)[C@@H]1NC(=O)[C@@H](Cc2c[nH]c3ccccc23)NC(=O)CC2(CCCCC2)SSC(C)(C)[C@@H](C(=O)N2CCC[C@H]2C(=O)N[C@@H](CCCNC(=N)N)C(=O)NCC(N)=O)NC(=O)[C@H](CC(N)=O)NC(=O)[C@H](CCC(N)=O)NC1=O [Compound C2, [Pmp^1, DTrp^2, Pen^6, Arg^8] oxytocin] ([dW]IQN[Pen]PRG-NH2; linker N-5 via X1)
OXYTOCIC BIOASSAY ED50 (ESTROUS RAT UTERUS; estrous rat uterus): 1.91 nM

CC[C@H](C)[C@@H]1NC(=O)[C@@H](Cc2c[nH]c3ccccc23)NC(=O)CC2(CCCCC2)SSC[C@@H](C(=O)N2CCC[C@H]2C(=O)N[C@@H](CCCNC(=N)N)C(=O)NCC(N)=O)NC(=O)[C@H](CC(N)=O)NC(=O)[C@H](CCC(N)=O)NC1=O [Compound C, [Pmp^1, D-Trp^2, Arg^8] oxytocin] ([dW]IQNCPRG-NH2; linker N-5 via X1)
ADH Bioassay Relative Anti-ADH Activity (ADH): 0.007
rOTr (OTA/ANTI) (RAT OXYTOCIN RECEPTOR): 1.8
ARI (antagonists-response interval) (pregnant baboon): 547
ARI (OTA/ANTI) (pregnant baboon): 9
hOTR (OTA/ANTI) (HUMAN OXYTOCIN RECEPTOR): 3.6
